From patent publication US20190367445A1, “4-AMINO SUBSTITUTED PHENYLAMIDINE DERIVATIVES AND THEIR USE TO PROTECT CROPS BY FIGHTING UNDESIRED PHYTOPATHOGENIC MICOORGANISMS” (PI INDUSTRIES LTD., priority 2016, published 2019)
Some of these results come from one statement about several compounds together. At least one structure is not confirmed: it was looked up by name or label, or the drawing left a doubt. Some ranges recur; such a range may be that of the whole group of compounds.

Tests used:
Assay type in all cases: cell-based
[1] = system: Septoria lycopersici (Leaf spot of tomato); assay: In vitro test on Potato Dextrose Agar, radial growth: Septoria lycopersici; details: 300 ppm, radial growth after seven days, 25° C., 70% relative humidity
[2] = system: Alternaria solani (early blight of tomato/potato); assay: In vitro test on Potato Dextrose Agar, radial growth: Alternaria solani; details: 300 ppm, radial growth after seven days, 25° C., 60% relative humidity
[3] = system: Botrytis cinerea (Gray mold); assay: In vitro test on Potato Dextrose Agar, radial growth: Botrytis cinerea; details: 300 ppm, radial growth after seven days, 22° C., 90% relative humidity
[4] = system: Rhizoctonia solani (Rice sheath blight/Potato black scurf); assay: In vitro test on Potato Dextrose Agar, radial growth: Rhizoctonia solani; details: 300 ppm, radial growth after seven days, 25° C., 60% relative humidity
[5] = system: Colletotrichum capsici (anthracnose); assay: In vitro test on Potato Dextrose Agar, radial growth: Colletotrichum capsici; details: 300 ppm, radial growth after seven days, 25° C., 60% relative humidity

Compound | control compared to untreated check [1] | control compared to untreated check [2] | control compared to untreated check [3] | control compared to untreated check [4] | control compared to untreated check [5]
CCN(C)C=Nc1cc(C)c(Nc2ccc(OC)cc2)cc1C [Compound 56] | 80-100% | 70 to 100% | – | – | –
CCN(C)C=Nc1cc(C)c(Nc2ccc(F)cc2)cc1Cl [Compound 83] | – | 70 to 100% | 70 to 100% | 70 to 100% | 70 to 100%
CCN(C)C=Nc1cc(C)c(N(C)c2c(F)cccc2F)cc1Cl [Compound 93] | – | 70 to 100% | 70 to 100% | 70 to 100% | 70 to 100%
CCN(C)C=Nc1cc(C)c(Nc2c(F)cccc2Cl)cc1Cl [Compound 95] | – | 70 to 100% | 70 to 100% | 70 to 100% | 70 to 100%
CCN(C)C=Nc1cc(C)c(N(C)c2ccccc2OC(F)(F)F)cc1C [Compound 104] | – | 70 to 100% | 70 to 100% | 70 to 100% | 70 to 100%
CCN(C)C=Nc1cc(C)c(N(C)c2ccccc2SC(F)(F)F)cc1C [Compound 121] | – | 70 to 100% | 70 to 100% | 70 to 100% | 70 to 100%
CCN(C)C=Nc1cc(C)c(Nc2cccc(SC(F)F)c2)cc1Cl [Compound 142] | – | 70 to 100% | 70 to 100% | 70 to 100% | 70 to 100%
CCN(C)C=Nc1cc(C)c(Nc2cccc(OC(F)F)c2)cc1C [Compound 144] | – | 70 to 100% | 70 to 100% | 70 to 100% | 70 to 100%
CCN(C)C=Nc1cc(C)c(Nc2cccc(OC(F)F)c2)cc1Cl [Compound 146] | – | 70 to 100% | 70 to 100% | 70 to 100% | 70 to 100%
CCN(C)C=Nc1cc(C)c(Nc2cc(F)ccc2F)cc1C [Compound 151] | – | 70 to 100% | 70 to 100% | 70 to 100% | 70 to 100%
CCN(C)C=Nc1cc(C)c(Nc2cc(F)ccc2F)cc1Cl [Compound 152] | – | 70 to 100% | 70 to 100% | 70 to 100% | 70 to 100%
CCN(C)C=Nc1cc(F)c(N(C)c2ccc(F)c(OC(F)(F)C(F)F)c2)cc1C [Compound 181] | – | 70 to 100% | 70 to 100% | 70 to 100% | 70 to 100%
CCN(C)C=Nc1cc(C)c(N(CC)c2ccccc2)cc1Cl [Compound 188] | 80-100% | 70 to 100% | – | 70 to 100% | –
CCN(C)C=Nc1cc(C)c(N(c2cccc(OC)c2)S(C)(=O)=O)cc1Cl [Compound 194] | 80-100% | – | – | – | –
CCN(C)C=Nc1cc(F)c(Nc2ccccc2F)cc1C [Compound 208] | 80-100% | 70 to 100% | – | 70 to 100% | –
CCN(C)C=Nc1cc(C)c(N(C)c2cc(C)ccc2F)cc1Cl [Compound 210] | – | 70 to 100% | 70 to 100% | 70 to 100% | 70 to 100%
CCN(C)C=Nc1cc(C)c(Nc2ccc3c(c2)CCCC3=O)cc1Cl [Compound 224] | 80-100% | 70 to 100% | – | – | –
